Experimental data as given in paper PMC10254187.

The chains behind the UniProt entries cited, without tags or fusion partners. Residues count along the entry.
UniProt Q9Y4K0, residues 26-774: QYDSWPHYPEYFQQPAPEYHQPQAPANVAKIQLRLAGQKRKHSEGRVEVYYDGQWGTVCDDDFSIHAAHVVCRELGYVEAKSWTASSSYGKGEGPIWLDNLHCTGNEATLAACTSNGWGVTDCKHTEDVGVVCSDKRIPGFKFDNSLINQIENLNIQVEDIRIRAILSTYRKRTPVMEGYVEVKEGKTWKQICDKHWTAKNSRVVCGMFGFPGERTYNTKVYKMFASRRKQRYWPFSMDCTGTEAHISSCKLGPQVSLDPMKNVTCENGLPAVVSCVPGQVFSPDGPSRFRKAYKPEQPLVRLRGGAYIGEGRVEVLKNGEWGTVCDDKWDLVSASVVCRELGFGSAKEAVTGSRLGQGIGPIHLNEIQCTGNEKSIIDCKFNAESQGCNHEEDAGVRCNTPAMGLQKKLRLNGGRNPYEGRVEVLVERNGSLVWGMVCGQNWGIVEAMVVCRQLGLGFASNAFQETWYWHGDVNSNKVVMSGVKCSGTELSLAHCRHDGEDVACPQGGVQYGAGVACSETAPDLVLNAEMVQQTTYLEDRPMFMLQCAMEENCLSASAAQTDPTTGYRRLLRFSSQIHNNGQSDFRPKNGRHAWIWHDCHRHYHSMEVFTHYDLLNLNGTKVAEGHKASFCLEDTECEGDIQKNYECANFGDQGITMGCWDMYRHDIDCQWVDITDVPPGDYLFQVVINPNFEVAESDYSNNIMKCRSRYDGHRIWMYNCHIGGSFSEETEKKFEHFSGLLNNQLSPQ
UniProt Q15717: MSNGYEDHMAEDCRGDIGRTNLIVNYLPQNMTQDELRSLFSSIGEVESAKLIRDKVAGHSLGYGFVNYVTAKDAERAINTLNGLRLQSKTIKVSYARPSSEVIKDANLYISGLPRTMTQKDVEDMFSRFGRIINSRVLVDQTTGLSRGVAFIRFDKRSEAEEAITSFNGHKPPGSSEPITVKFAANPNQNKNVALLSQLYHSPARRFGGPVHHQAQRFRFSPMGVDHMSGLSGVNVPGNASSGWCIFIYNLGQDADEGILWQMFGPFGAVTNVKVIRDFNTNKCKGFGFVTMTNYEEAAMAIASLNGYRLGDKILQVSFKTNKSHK
UniProt Q86U44: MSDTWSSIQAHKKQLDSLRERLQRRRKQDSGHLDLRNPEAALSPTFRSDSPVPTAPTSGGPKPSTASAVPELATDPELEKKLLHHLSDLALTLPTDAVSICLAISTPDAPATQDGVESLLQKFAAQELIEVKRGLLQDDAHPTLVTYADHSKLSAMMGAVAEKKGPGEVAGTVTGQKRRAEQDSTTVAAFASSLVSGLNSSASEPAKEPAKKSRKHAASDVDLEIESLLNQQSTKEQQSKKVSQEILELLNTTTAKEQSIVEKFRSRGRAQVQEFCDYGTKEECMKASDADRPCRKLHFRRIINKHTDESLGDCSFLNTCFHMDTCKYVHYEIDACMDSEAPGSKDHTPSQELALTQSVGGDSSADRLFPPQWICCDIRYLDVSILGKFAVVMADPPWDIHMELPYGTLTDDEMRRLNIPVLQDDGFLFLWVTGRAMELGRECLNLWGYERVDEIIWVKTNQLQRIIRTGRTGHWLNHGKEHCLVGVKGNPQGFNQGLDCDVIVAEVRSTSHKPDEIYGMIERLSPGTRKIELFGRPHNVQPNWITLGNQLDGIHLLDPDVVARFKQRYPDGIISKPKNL
UniProt Q07955: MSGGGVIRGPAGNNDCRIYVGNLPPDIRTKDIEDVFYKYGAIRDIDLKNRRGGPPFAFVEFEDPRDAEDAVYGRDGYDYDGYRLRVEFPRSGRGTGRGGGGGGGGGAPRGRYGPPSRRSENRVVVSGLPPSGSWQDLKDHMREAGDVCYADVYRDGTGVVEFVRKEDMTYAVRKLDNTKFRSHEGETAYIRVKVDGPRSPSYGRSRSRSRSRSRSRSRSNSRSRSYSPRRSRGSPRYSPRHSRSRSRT
UniProt O00571: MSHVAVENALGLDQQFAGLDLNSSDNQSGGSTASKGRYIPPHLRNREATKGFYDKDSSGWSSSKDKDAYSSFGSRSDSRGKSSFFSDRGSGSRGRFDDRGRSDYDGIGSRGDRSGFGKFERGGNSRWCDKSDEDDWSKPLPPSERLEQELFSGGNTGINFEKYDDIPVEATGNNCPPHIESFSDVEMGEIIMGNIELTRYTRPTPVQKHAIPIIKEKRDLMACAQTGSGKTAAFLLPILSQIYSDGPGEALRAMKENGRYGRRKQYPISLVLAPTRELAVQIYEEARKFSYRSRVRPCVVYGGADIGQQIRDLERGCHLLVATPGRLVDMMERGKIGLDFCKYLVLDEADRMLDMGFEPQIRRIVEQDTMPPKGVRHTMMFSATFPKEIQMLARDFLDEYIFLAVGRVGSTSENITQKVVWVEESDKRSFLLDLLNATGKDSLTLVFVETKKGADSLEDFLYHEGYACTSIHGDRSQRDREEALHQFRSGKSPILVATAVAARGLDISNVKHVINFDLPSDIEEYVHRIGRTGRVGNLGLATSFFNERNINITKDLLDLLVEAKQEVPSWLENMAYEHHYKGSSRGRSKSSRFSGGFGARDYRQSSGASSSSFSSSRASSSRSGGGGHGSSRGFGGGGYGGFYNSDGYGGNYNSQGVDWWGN
UniProt P11021, residues 19-654: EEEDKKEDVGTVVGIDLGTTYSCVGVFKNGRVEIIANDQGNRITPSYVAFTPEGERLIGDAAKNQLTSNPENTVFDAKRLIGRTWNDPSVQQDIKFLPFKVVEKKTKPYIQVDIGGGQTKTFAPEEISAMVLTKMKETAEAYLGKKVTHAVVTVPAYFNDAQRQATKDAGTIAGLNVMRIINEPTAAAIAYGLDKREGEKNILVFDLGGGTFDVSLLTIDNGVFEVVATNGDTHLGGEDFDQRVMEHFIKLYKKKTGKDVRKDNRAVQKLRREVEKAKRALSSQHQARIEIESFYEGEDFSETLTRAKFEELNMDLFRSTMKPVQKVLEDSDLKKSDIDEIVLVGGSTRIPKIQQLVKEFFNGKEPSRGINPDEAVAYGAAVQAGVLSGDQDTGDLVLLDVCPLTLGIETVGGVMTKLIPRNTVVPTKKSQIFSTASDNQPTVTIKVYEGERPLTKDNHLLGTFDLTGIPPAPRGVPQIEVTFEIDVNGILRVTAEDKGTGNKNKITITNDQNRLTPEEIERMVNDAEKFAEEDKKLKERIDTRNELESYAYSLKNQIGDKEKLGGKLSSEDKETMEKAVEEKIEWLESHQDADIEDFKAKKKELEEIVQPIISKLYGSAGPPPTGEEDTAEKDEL

Key:
[1] = molecular target: flag-tagged LOXL2 (lysyl oxidase-like 2) (human) (UniProt Q9Y4K0); assay: affinity purification with mass spectrometry; anti-Flag antibody on Dynabeads Protein G, overnight at 4 °C, from nuclear-enriched extracts (400 mM NaCl extraction) of HEK293T cells transfected with pcDNA3-Flag-LOXL2; two independent immunoprecipitates; hits of the empty flag vector subtracted; LC-MS/MS
[2] = molecular target: flag-tagged LOXL2 (lysyl oxidase-like 2) (human) (UniProt Q9Y4K0); assay: as above; remark: listed apart in the source

binding [1]: binds
Molecule: ELAVL1 (ELAV-like RNA-binding protein 1) (from UniProt Q15717 1-326)

binding [1]: binds
Molecule: METTL3 (from UniProt Q86U44 1-580)

binding [1]: binds
Molecule: SRSF1 (RNA-binding protein serine/arginine splicing factor 1) (from UniProt Q07955 1-248)

binding [1]: binds
Molecule: DDX3X (from UniProt O00571 1-662)

binding [1]: binds
Molecule: HSPA5 (from UniProt P11021 19-654)

binding [2]: binds
B1: MATRIN3 (protein, UniProt P43243 1-847)
chain: MSKSFQQSSLSRDSQGHGRDLSAAGIGLLAAATQSLSMPASLGRMNQGTARLASLMNLGMSSSLNQQGAHSALSSASTSSHNLQSIFNIGSRGPLPLSSQHRGDADQASNILASFGLSARDLDELSRYPEDKITPENLPQILLQLKRRRTEEGPTLSYGRDGRSATREPPYRVPRDDWEEKRHFRRDSFDDRGPSLNPVLDYDHGSRSQESGYYDRMDYEDDRLRDGERCRDDSFFGETSHNYHKFDSEYERMGRGPGPLQERSLFEKKRGAPPSSNIEDFHGLLPKGYPHLCSICDLPVHSNKEWSQHINGASHSRRCQLLLEIYPEWNPDNDTGHTMGDPFMLQQSTNPAPGILGPPPPSFHLGGPAVGPRGNLGAGNGNLQGPRHMQKGRVETSRVVHIMDFQRGKNLRYQLLQLVEPFGVISNHLILNKINEAFIEMATTEDAQAAVDYYTTTPALVFGKPVRVHLSQKYKRIKKPEGKPDQKFDQKQELGRVIHLSNLPHSGYSDSAVLKLAEPYGKIKNYILMRMKSQAFIEMETREDAMAMVDHCLKKALWFQGRCVKVDLSEKYKKLVLRIPNRGIDLLKKDKSRKRSYSPDGKESPSDKKSKTDGSQKTESSTEGKEQEEKSGEDGEKDTKDDQTEQEPNMLLESEDELLVDEEEAAALLESGSSVGDETDLANLGDVASDGKKEPSDKAVKKDGSASAAAKKKLKKVDKIEELDQENEAALENGIKNEENTEPGAESSENADDPNKDTSENADGQSDENKDDYTIPDEYRIGPYQPNVPVGIDYVIPKTGFYCKLCSLFYTNEEVAKNTHCSSLPHYQKLKKFLNKLAEERRQKKET

binding [2]: binds
B2: HNRNPM (protein, UniProt P52272 1-730)
chain: MAAGVEAAAEVAATEIKMEEESGAPGVPSGNGAPGPKGEGERPAQNEKRKEKNIKRGGNRFEPYANPTKRYRAFITNIPFDVKWQSLKDLVKEKVGEVTYVELLMDAEGKSRGCAVVEFKMEESMKKAAEVLNKHSLSGRPLKVKEDPDGEHARRAMQKVMATTGGMGMGPGGPGMITIPPSILNNPNIPNEIIHALQAGRLGSTVFVANLDYKVGWKKLKEVFSMAGVVVRADILEDKDGKSRGIGTVTFEQSIEAVQAISMFNGQLLFDRPMHVKMDERALPKGDFFPPERPQQLPHGLGGIGMGLGPGGQPIDANHLNKGIGMGNIGPAGMGMEGIGFGINKMGGMEGPFGGGMENMGRFGSGMNMGRINEILSNALKRGEIIAKQGGGGGGGSVPGIERMGPGIDRLGGAGMERMGAGLGHGMDRVGSEIERMGLVMDRMGSVERMGSGIERMGPLGLDHMASSIERMGQTMERIGSGVERMGAGMGFGLERMAAPIDRVGQTIERMGSGVERMGPAIERMGLSMERMVPAGMGAGLERMGPVMDRMATGLERMGANNLERMGLERMGANSLERMGLERMGANSLERMGPAMGPALGAGIERMGLAMGGGGGASFDRAIEMERGNFGGSFAGSFGGAGGHAPGVARKACQIFVRNLPFDFTWKMLKDKFNECGHVLYADIKMENGKSKGCGVVKFESPEVAERACRMMNGMKLSGREIDVRIDRNA

Where two headings read alike, the source gives them in different places. These are yes or no findings as the source states them, for the method shown. In cells and extracts the contact can be indirect. Here binding means that the protein was enriched with, or labelled near, the bait; the list need not be complete. Each block holds one molecule with its values, some of them ahead of it.
